From paper PMC9507130
Results are given in words; binding and its absence hold for the method and conditions named. One block for each binder: values may come before it.

Target: T1, YPE module alone (Ypt35(PX)-Envy) (S. cerevisiae) (UniProt P38815)
T1 sequence: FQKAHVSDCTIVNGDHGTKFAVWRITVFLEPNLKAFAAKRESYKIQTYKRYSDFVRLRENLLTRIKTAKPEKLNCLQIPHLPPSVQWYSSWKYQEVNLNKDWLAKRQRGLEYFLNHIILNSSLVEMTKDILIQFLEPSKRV
Experiment: subcellular recruitment assay (live-cell fluorescence microscopy); mScarletI-tagged prey scored as puncta per cell in yeast that express Envy-tagged Vrl1 constructs or chimeras anchored to endosomes by the Ypt35 PX domain (YPE); some experiments in a vin1Δ strain

binding: no binding
B1: Vin1^1-116-mScI (domain or fragment, UniProt P36158 1-116)
chain: MENDKASHASPSIGVNEFVVQGEISIDDSERSVKSVSVSISDDEDSKTDVQDNMATPSTRSKFQTDLAIDNRLLEKDPKYKKLFTEKRRRRRPESCINLMTKGKGTGQKDNINDQI

binding: no binding
B2: Vps5^1-276-mScI (domain or fragment, UniProt Q92331 1-276)
chain: MDYEDNLEAPVWDELNHEGDKTQSLVSNSIESIGQISTNEERKDNELLETTASFADKIDLDSAPEWKDPGLSVAGNPQLEEHDNSKADDLINSLAPEQDPIADLKNSTTQFIATRESGGALFTGNANSPLVFDDTIYDANTSPNTSKSISGRRSGKPRILFDSARAQRNSKRNHSLKAKRTTASDDTIKTPFTDPLKKAEKENEFVEEPLDDRNERRENNEGKFTASVEKNILEQVDRPLYNLPQTGANISSPAEVEENSEKFGKTKIGSKVPPTE
